Results: publication PMC6776368
No constants are given. Whether binding was seen depends on the method and setting. In cells and extracts the contact can be indirect. Some entries that bind do so weakly or less than the wild type.

Amino acid sequences for entries named in this document (tags omitted).
UniProt Q6PH56: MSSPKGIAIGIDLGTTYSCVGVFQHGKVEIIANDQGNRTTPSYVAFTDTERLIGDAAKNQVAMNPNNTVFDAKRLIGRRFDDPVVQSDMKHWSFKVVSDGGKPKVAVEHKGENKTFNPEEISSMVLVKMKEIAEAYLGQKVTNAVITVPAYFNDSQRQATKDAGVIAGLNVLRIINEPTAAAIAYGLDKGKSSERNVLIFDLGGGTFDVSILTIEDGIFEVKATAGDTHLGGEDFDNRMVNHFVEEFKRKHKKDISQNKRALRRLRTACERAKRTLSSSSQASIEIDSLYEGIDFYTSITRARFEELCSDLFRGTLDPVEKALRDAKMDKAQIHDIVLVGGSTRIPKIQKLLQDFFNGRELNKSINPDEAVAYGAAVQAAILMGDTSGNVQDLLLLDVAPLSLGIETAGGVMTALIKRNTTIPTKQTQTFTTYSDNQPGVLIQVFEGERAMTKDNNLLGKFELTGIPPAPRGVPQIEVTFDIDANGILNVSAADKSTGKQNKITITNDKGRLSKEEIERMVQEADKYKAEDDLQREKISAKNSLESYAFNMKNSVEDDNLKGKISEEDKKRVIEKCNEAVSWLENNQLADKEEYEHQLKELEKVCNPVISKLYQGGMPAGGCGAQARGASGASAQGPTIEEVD

Columns and labels:
Assay in all cases: co-IP; HEK293T cells transiently transfected with C-terminally myc-tagged Marcks proteins and N-terminally HA-tagged Hsp70.3; blots with anti-Myc and anti-HA; which tag was precipitated is not stated
[1] = target: T1, Marcksl1b (zebrafish) (UniProt Q6NWH2)
T1 sequence: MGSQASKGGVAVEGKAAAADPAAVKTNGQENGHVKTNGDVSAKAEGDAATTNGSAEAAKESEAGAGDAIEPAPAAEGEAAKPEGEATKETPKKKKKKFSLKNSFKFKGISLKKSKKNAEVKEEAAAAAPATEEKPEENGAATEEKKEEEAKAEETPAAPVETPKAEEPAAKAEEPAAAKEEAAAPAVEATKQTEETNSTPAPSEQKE

[2] = target: T2, Marcksb (zebrafish) (UniProt F6NXD5)
T2 sequence: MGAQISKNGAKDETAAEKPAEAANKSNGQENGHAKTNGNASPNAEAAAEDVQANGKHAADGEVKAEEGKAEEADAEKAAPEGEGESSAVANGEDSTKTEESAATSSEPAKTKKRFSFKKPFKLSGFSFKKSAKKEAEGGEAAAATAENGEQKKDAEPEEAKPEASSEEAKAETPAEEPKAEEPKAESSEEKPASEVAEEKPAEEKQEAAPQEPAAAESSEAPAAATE

[3] = target: T3, Marcksl1a (zebrafish) (UniProt Q6PD99)
T3 sequence: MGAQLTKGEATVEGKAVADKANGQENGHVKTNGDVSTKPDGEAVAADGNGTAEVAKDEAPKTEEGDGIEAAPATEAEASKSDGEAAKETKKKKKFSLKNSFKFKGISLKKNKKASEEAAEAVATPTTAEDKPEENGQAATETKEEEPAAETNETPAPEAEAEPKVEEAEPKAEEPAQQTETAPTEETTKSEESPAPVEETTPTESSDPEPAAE

Measured: binding

Hsp70.3 (from UniProt Q6PH56 1-643)
binds: all assays above
